Positions count from the first letter of the chain named. These are yes or no findings as the source states them, for the method shown. Some entries that bind do so weakly or less than the wild type. Blank lines part the entries; values can stand above or below the binder they belong to.
How the values were obtained:
[1] = target: 161P2F10B protein (human), expressed on the cell surface (human) (UniProt O14638); experiment: FACS on UG-K3 cells (open line) vs filled negative-control histogram, anti-hIgG-PE
[2] = target: 161P2F10B protein (human), expressed on the cell surface (human) (UniProt O14638); experiment: FACS: Caki-161P2F10B cells (open line) vs Caki Neo cells (filled), anti-hIgG-PE
[3] = target: 161P2F10B protein (human), expressed on the cell surface (human) (UniProt O14638); experiment: FACS on CAKI-161P2F10B and UG-K3 cells (FIG. 6 and FIG. 7)
[4] = target: 161P2F10B protein (human), expressed on the cell surface (human) (UniProt O14638); experiment: flow cytometry on cells or ELISA on immobilized 161P2F10B
[5] = target: mouse 161P2F10B expressed on 293T cells (mouse) (UniProt Q6DYE8); experiment: FACS: 293T-mouse 161P2F10B cells (open line) vs 293T-neo cells (filled), MAb 2 µg/mL, anti-hIgG-PE
[6] = target: 161P2F10B protein (human), expressed on the cell surface (human) (UniProt O14638); experiment: FACS on UG-K3 cells, biotinylated MAb, streptavidin-PE; buffer rows of the competition table

Chains of the proteins cited; added tags and fusions are not shown. Lines headed by an entry give the natural chain unless they say otherwise; changes in a name come on top.
UniProt O14638: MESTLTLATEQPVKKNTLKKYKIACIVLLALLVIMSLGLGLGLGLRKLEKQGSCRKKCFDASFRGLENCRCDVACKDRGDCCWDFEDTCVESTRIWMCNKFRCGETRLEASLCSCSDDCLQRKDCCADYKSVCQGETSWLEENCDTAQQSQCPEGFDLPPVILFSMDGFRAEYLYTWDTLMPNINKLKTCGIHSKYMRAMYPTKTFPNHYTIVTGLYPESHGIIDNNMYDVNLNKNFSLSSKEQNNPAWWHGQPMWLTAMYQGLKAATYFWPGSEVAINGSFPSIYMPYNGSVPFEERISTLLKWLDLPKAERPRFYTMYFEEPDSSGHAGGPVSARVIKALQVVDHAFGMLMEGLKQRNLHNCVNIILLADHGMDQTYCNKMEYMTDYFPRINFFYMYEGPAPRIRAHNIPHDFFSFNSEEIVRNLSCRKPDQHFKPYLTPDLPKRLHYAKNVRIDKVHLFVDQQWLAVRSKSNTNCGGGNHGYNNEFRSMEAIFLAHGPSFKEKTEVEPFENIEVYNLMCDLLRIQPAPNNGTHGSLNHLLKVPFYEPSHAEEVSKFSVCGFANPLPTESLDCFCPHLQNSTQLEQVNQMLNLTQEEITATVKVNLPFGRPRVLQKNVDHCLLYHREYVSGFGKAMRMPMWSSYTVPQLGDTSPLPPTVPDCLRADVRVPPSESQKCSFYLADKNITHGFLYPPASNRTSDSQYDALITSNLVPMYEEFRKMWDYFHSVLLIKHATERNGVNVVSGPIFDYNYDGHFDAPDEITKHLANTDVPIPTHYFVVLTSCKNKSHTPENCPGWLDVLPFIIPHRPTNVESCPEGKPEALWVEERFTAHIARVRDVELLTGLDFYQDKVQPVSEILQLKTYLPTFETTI
UniProt Q6DYE8: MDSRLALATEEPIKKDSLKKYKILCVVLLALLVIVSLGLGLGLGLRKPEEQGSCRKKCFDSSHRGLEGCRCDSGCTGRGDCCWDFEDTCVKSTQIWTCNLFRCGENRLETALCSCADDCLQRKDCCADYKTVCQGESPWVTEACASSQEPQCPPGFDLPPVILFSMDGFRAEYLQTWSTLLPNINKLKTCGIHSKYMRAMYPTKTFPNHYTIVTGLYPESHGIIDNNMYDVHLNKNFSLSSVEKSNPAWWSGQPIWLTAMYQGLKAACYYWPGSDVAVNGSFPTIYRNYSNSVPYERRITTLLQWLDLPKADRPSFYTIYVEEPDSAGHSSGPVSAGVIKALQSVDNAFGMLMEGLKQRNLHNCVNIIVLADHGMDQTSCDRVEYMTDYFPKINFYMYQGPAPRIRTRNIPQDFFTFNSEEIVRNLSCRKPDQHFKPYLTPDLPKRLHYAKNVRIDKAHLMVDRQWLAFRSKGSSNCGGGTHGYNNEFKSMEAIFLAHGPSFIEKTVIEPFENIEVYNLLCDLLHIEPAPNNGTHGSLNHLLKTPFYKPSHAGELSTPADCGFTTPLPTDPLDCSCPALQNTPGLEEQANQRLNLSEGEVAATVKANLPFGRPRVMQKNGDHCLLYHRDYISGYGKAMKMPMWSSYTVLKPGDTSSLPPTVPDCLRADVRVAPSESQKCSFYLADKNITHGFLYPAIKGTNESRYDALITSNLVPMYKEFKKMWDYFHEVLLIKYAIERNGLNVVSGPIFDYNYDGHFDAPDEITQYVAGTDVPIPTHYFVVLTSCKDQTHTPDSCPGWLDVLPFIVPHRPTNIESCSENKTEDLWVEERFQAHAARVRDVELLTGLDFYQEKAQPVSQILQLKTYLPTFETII

binding [1]: binds
binding [2]: binds
binding [3]: binds
binding [4]: binds
B1: H16-9.10 (antibody, V domains shown)
VH: LLESGPGLVKPSQTLSLTCAISGDSVSSNSAAWNWIRQSPSRGLEWLGRTYYRSKWYNAYAVSVKSRMTINPDTSKNQFSLQLNSVTPEDTAVYYCAREAGGWFDPWGQGTLVTVSS
VL: DIQMTQSPSSVSASVGDRVTITCRASQGIRSWLAWYQQKPGKAPKLLIYAASSLQSGVPSRFSGSGSGTDFTLTISSLQPEDFATYYCQQANSFPPTFGGGTKVEIKR

binding [5]: binds
binding [3]: binds
binding [4]: binds
B2: H16-9.33 (antibody, V domains shown)
VH: EVQLLESGPGLVKPSQTLSLTCAISGDSVSSNSAAWNWIRQSPSRGLEWLGRTYYRSKYYNAYPVSVKSRITINPDTSKNQFSLQLNSVTPEDTAVYYCAREAGGWFDPWGQGTLVTVSS
VL: B1 VL with S26N

binding [6]: binds
binding [1]: binds
binding [2]: binds
binding [3]: binds
binding [4]: binds
B3: H16-1(3,5)5 (antibody, V domains shown)
VH: EVQLVQSGAEVKKPGESLKISCKGSGYRFTSYWIGWVRQMPGKGLEWMGIIYPGDSDTRYSPSFQGQVTISADKSISTAYLQWSSLKASDTAMYYCARKDYYYYTMDVWGQGTTVTVSS
VL: QSALTQPASVSGSPGQSITISCTGTSSDVGGYNYVSWYQQHPGKAPKLMIYAVSNRPSGVSNRFSGSKSGNTASLTISGLQAEDEADYYCSSYTISRILVVFGGGTKLTVLG

binding [1]: binds
binding [2]: binds
binding [3]: binds
binding [4]: binds
B4: Ha16-1(3,5)27.1 (antibody, V domains shown)
VH: LVESGAEVKKPGESLKISCKGSGYRFTSYWIGWVRQMPGKGLEWMGIIYPGDSDTRYSPSFQGQVTISADKSISTAYLQWSSLKASDTAMYYCARKDYYYYSMDVWGQGTTVTVSS
VL: GQSALTQPASVSGSPGQSITISCTGTSSDVGGYNYVSWYQQHPGQAPKLLIYGVNIRPSGVSTRFSGSKSGNTASLTISGLQAEDEADYYCSSYTRSSILVVFAGGTKLTVLG
